Assay results published in patent US20210253998A1 (published 2021).
These are yes or no findings as the source states them, for the method shown. In cells and extracts the contact can be indirect. Some results given as binding are weak or reduced against the parent protein; the word gives no strength.

By UniProt entry, the sequences of proteins in these tests, tags left out. Where a name states a change or a piece, a line headed by the entry shows the natural chain unless it says otherwise.
UniProt O95983: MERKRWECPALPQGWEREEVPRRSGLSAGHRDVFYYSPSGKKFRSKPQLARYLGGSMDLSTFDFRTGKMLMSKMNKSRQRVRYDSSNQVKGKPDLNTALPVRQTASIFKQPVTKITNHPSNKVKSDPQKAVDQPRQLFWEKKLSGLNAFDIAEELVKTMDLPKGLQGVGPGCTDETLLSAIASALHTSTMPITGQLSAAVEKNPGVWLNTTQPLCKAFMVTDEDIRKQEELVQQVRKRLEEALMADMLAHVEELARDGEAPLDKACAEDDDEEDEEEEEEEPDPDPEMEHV
UniProt Q9UBB5: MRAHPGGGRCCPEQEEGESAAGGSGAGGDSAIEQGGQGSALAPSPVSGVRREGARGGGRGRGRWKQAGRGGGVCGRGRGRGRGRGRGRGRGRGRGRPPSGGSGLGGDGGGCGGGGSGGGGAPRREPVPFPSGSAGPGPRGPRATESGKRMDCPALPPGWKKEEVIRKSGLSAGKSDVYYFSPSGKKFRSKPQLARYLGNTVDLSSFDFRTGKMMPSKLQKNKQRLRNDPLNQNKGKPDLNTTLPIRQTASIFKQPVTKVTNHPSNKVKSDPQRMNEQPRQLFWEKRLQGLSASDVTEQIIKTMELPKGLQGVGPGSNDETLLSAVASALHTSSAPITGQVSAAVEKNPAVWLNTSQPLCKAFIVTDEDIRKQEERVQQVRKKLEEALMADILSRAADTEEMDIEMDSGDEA
UniProt O43474: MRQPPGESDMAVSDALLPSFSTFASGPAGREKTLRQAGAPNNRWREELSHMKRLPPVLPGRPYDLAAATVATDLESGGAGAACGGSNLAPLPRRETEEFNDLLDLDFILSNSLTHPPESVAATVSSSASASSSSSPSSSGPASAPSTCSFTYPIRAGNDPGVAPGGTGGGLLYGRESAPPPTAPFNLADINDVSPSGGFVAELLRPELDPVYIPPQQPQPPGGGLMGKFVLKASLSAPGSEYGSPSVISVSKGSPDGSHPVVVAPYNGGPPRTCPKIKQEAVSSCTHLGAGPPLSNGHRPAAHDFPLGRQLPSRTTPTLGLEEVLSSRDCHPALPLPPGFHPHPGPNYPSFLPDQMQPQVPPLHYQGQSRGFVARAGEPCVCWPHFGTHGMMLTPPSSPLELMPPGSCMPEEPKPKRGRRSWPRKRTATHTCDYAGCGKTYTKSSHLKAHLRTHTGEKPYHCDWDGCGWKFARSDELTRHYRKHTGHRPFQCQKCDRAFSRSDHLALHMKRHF
UniProt Q01860: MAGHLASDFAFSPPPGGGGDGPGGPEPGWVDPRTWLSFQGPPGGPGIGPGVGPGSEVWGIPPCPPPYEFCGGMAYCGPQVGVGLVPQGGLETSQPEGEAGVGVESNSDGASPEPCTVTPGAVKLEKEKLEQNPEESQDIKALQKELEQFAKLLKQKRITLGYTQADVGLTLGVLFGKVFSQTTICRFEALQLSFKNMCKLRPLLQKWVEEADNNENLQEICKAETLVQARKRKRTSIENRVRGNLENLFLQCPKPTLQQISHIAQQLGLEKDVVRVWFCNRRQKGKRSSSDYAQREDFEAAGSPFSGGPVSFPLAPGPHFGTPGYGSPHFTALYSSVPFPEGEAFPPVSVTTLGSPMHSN
UniProt P01106: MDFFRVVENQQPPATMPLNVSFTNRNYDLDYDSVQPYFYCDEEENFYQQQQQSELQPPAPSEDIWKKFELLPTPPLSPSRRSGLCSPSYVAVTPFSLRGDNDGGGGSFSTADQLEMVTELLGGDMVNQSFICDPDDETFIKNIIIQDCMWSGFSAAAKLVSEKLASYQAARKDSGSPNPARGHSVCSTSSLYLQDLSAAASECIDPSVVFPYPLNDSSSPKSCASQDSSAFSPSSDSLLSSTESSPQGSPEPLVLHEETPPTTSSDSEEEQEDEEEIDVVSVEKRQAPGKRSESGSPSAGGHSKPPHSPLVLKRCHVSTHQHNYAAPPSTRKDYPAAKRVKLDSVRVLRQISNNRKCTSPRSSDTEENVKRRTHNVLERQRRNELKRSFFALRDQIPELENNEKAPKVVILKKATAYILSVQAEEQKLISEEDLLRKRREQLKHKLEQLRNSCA
UniProt P48431: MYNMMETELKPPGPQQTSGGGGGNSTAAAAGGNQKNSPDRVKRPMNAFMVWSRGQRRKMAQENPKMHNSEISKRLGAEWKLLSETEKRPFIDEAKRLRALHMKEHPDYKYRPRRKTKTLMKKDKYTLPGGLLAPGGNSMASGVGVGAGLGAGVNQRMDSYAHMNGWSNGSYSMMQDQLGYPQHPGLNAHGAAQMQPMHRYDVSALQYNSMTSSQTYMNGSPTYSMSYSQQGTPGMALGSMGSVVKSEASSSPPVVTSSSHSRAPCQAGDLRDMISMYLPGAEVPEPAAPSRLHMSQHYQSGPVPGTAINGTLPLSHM
UniProt Q13547: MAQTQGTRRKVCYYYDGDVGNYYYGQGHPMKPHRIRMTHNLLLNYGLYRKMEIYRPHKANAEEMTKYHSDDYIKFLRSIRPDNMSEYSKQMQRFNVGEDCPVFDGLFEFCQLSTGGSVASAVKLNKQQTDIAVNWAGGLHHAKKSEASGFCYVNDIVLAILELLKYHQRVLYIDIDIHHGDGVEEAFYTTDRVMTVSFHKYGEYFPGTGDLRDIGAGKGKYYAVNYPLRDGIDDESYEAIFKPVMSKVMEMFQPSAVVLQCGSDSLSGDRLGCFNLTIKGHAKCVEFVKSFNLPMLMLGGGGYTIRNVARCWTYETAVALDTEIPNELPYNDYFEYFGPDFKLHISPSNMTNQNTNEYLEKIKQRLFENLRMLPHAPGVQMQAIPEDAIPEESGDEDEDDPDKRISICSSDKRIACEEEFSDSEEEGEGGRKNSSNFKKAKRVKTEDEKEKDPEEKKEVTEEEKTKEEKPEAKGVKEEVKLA

Key:
[1] = target: Mbd3 (untagged, overexpressed in HEK293T cells) (Homo sapiens (Human)) (UniProt O95983); assay: co-IP after overexpression in HEK293 cells
[2] = target: Mbd3 (untagged, overexpressed in HEK293T cells) (Homo sapiens (Human)) (UniProt O95983); assay: co-IP with anti-Flag from HEK293T lysates, immunoblot anti-Mbd3
[3] = target: Mbd3 (untagged, overexpressed in HEK293T cells) (Homo sapiens (Human)) (UniProt O95983); assay: co-IP after overexpression in 293HEK cells
[4] = target: Mbd3 (untagged, overexpressed in HEK293T cells) (Homo sapiens (Human)) (UniProt O95983); assay: co-IP with anti-Flag from HEK293T lysates co-transfected with MBD3, immunoblot
[5] = target: Mbd2 (overexpressed in HEK293T cells) (Homo sapiens (Human)) (UniProt Q9UBB5); assay: co-IP with anti-Flag from HEK293T lysates co-transfected with MBD2, immunoblot

Row | Substance | binding [1] | binding [2] | binding [3] | binding [4] | binding [5]
1 | Flag-tagged KLF4 (from UniProt O43474 1-513) | binds | binds | binds | – | –
2 | Flag-tagged OCT4 (from UniProt Q01860 1-360) | binds | binds | binds | – | –
3 | Flag-tagged c-MYC (from UniProt P01106 1-454) | binds | binds | – | – | –
4 | Flag-tagged SOX2 (from UniProt P48431 1-317) | binds | binds | binds | – | –
5 | Flag-tagged HDAC1 (from UniProt Q13547 1-482) (enzyme) | – | binds | – | binds | binds
